A short description of the experiment: qHTS Assay for Modulators of Lamin A Splicing. The note with it: HeLa LMNA splicing GFP/RFP minigene ratio, 48 h. A digest of the protocol:
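Read-out is the ratio of GFP to DsRed2 object intensity, acquired by 488 nm laser-scanning cytometry on HeLa lamin A-EGFP minigene reporter cells. Compound incubation 48 hrs at 37 °C in Opti-MEM with 2% FBS; DMSO 0.5% final.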
On the technique in general: qHTS replaces the single test concentration by a dilution series.

Setting [1] is: measured here: GFP splicing reporter channel.
Where [2] appears, read: measured here: RFP viability control channel.

The list shows a part of the results. The main result of the screen is listed elsewhere. These columns were measured beside it and carry no call. Compounds called inactive in the main read-out are mostly missing here. Words in brackets tell the shape of the fitted curve; partial curves, single points and poor fits give uncertain potencies.

The AC50 is the concentration giving half of the maximal activity seen.

As to `COc1cccc2sc(Nc3nnc(-c4ccccc4Cl)o3)nc12`, the concentration at half-maximal activity (AC50) is, setting by setting: under setting [1], 20 µM [falling, single point]; under setting [2], 0.631 µM [rising, full curve].

Regarding `Cc1ccc(C(=O)N2CCN(c3ccc(NC(=O)CSc4ccc(Cl)cc4)cc3)CC2)cc1`, the AC50 was 7.08 µM [rising, partial curve] under setting [1] and 7.94 µM [rising, partial curve, poor fit] under setting [2].

Turning to `CCCCn1c2c(c3ccccc31)CCc1nonc1-2`, the AC50 under setting [1] is 14.1 µM [rising, single point].

In the case of `CCOc1ccccc1N1CCN(C(=O)c2c(-c3ccccc3Cl)noc2C)CC1`, the half-maximal activity concentration (AC50) was 0.398 µM [falling, full curve, poor fit] under setting [1] and 0.708 µM [falling, full curve, poor fit] under setting [2].

Regarding `Oc1ccccc1N1CCN(C(=S)NCCc2ccccc2)CC1`, the AC50 under setting [2] is 5.01 µM [rising, partial curve].

As for `Cc1nn(-c2ccccc2)c(C)c1NC(=O)CCl`, the AC50 is, setting by setting: under setting [1], 3.16 µM [falling, full curve, poor fit]; under setting [2], 3.55 µM [falling, full curve].

As to `O=C(COc1ccc(C(=O)c2ccccc2)cc1)NCC1CCCCC1`, the half-maximal activity concentration (AC50) under setting [2] is 25.1 µM [rising, single point].

For the compound `CCCNS(=O)(=O)c1ccc(CCC(=O)N2CCN(c3ccc(OC)cc3)CC2)cc1`, the AC50 under setting [2] was 14.1 µM [rising, single point].

As for `CN(C)CCN1CCc2ccccc21`, the half-maximal activity concentration (AC50) was 11.2 µM [rising, partial curve] under setting [1] and 15.8 µM [rising, partial curve] under setting [2].

Consider `Cc1cc(SCc2ccccc2)nc(=O)[nH]1`, for which, under setting [2], the AC50 was 2 µM [falling, full curve, poor fit].

Take `Cc1ccc(CNC(=O)C2CCN(c3nc4ccc(C)cc4[nH]3)CC2)cc1`: the concentration at half-maximal activity (AC50) under setting [2] is 6.31 µM [falling, single point].

On to `COc1cccc(-c2cncnc2NCCc2cnc[nH]2)c1`, for which the concentration at half-maximal activity (AC50) under setting [2] is 0.316 µM [falling, full curve, poor fit].

For `O=C(N/N=C/c1cn(-c2ccccc2)nc1-c1cccs1)c1ccc(Cl)cc1`, the AC50 is 10 µM [rising, partial curve] under setting [1] and 15.8 µM [rising, partial curve] under setting [2].

In the case of `CC(C)(CC(=O)O)CC(=O)NCc1c(Cl)cccc1Sc1ccc(Cl)cc1`, the AC50 under setting [2] was 35.5 µM [falling, partial curve, poor fit].

Consider `COc1cccc(C(=O)NC(c2ccc(Cl)cc2)c2cc(Cl)c3cccnc3c2O)c1` (stereo unspecified), for which the half-maximal activity concentration (AC50) is, setting by setting: under setting [1], 35.5 µM [falling, single point]; under setting [2], 31.6 µM [falling, single point].

For `Cc1oc2ccc(O)cc2c1C(=O)c1ccc(Cl)cc1`, the half-maximal activity concentration (AC50) was 35.5 µM [rising, single point] under setting [1] and 31.6 µM [rising, single point] under setting [2].

Take `O=C(COc1ccc(F)cc1)Nc1cccc(OCc2cc(=O)n3ccccc3n2)c1`: the AC50 under setting [2] is 11.2 µM [falling, partial curve].

As to `O=C(Nc1cccs1)OCCN1CCN(Cc2ccccc2)CCC1=O`, under setting [2], the concentration at half-maximal activity (AC50) was 20 µM [rising, partial curve, poor fit].

In the case of `O=C(Oc1cccc(C(=S)N2CCCCC2)c1)c1ccccc1`, under setting [1], the AC50 is 15.8 µM [rising, partial curve, poor fit].

Regarding `Cc1nnc(SCc2nc3sc4c(c3c(=O)[nH]2)CCCC4)n(N)c1=O`, the AC50 under setting [2] was 0.0794 µM [falling, full curve, poor fit].

For `O=C(c1ccc(Br)o1)N1CCc2ccccc21`, the concentration at half-maximal activity (AC50) is 12.6 µM [falling, partial curve] under setting [1] and 35.5 µM [falling, partial curve] under setting [2].

With `Cc1cc(C=O)c(C)n1-c1ccc(Oc2ccc([N+](=O)[O-])cn2)cc1`, the AC50 under setting [1] was 5.01 µM [falling, partial curve] and the concentration at half-maximal activity (AC50) under setting [2] was 2.82 µM [falling, full curve].

With `CCCCNC(=S)NNC(=O)CCn1nc(C)c(Br)c1C`, the AC50 runs as follows: under setting [1], 35.5 µM [falling, single point]; under setting [2], 22.4 µM [falling, single point].

Turning to `CC(=O)c1c(C)[nH]c(C(=O)N2CCN(c3ccc(F)cc3)CC2)c1C`, the AC50 is, setting by setting: under setting [1], 12.6 µM [rising, partial curve, poor fit]; under setting [2], 12.6 µM [rising, single point].

For `Cc1ccc(Cl)cc1NC(=O)Cn1c(=O)oc2cc(S(=O)(=O)N3CCCCCC3)ccc21`, the AC50 under setting [1] was 25.1 µM [falling, single point].

For the compound `O=C(NC(=S)Nc1nc2ccccc2s1)c1ccco1`, the AC50 by setting is: under setting [1], 0.2 µM [falling, full curve, poor fit]; under setting [2], 0.158 µM [falling, full curve, poor fit].

Take `NS(=O)(=O)c1ccc(N2N=C(c3ccccc3)CC2c2ccc(F)cc2)cc1` (stereo unspecified): the AC50 is, setting by setting: under setting [1], 35.5 µM [falling, single point]; under setting [2], 35.5 µM [falling, single point].

With `Cc1ccc(NC(=O)c2ccc(=O)n(CC(=O)Nc3cc(C)cc(C)c3)n2)cc1`, the AC50 under setting [2] was 10 µM [falling, partial curve].

As to `O=C(N=Nc1ccc(NOC(=O)c2ccccc2Br)cc1)c1ccccc1O`, the half-maximal activity concentration (AC50) by setting is: under setting [1], 2 µM [rising, partial curve, poor fit]; under setting [2], 1.26 µM [rising, full curve].

`Cc1ccc(CSc2nc3c(c(N(C)C)n2)CCCC3)cc1`: the concentration at half-maximal activity (AC50) under setting [2] was 11.2 µM [rising, partial curve, poor fit].

Turning to `Cc1cc(NC(=O)CSc2cn(CCNC(=O)c3ccc(F)cc3)c3ccccc23)no1`, the half-maximal activity concentration (AC50) is 10 µM [rising, partial curve, poor fit] under setting [1] and 14.1 µM [rising, partial curve] under setting [2].

On to `COCCN=c1scc(-c2cccs2)n1/N=C/c1ccc(O)c(O)c1O`, for which the AC50 reads like this: under setting [1], 35.5 µM [falling, single point]; under setting [2], 35.5 µM [falling, single point].

As for `CCN(C(=O)c1cc(S(=O)(=O)N2CCOCC2)cn1C)c1ccc(OC)cc1`, the AC50 under setting [2] is 25.1 µM [falling, partial curve].

For the compound `COc1ccc(/C=C/c2nc3ccccc3n2Cc2ccc(OC)c(OC)c2)cc1`, the AC50 is, setting by setting: under setting [1], 20 µM [rising, single point]; under setting [2], 31.6 µM [rising, single point].

Take `CC(O)C(=O)N/N=C/c1ccccc1C(=O)O` (stereo unspecified): the half-maximal activity concentration (AC50) is 28.2 µM [rising, partial curve, poor fit] under setting [1] and 25.1 µM [rising, partial curve] under setting [2].

Turning to `COc1ccc(OC)c(C2C(C(N)=O)=C(C)Nc3nc(-c4cccc(Cl)c4)nn32)c1` (stereo unspecified), the AC50 under setting [2] was 11.2 µM [rising, single point].

In the case of `Cc1ccc(NC(=O)c2ccc([N+](=O)[O-])o2)c(C)c1`, the AC50 under setting [1] was 12.6 µM [falling, single point] and the concentration at half-maximal activity (AC50) under setting [2] was 22.4 µM [falling, partial curve].

As to `COc1ccc(CC2(CO)CCN(C/C=C/c3ccccc3OC)CC2)cc1`, under setting [2], the half-maximal activity concentration (AC50) was 3.55 µM [falling, single point].

For the compound `Cc1csc(N(C)C(=O)CSc2nnc(COc3cccc4ccccc34)o2)n1`, the concentration at half-maximal activity (AC50) under setting [2] is 2.51 µM [rising, full curve].

Consider `Cc1ccc(-n2c(N)c(Br)c(=O)[nH]c2=O)cc1C`, for which, under setting [2], the half-maximal activity concentration (AC50) was 0.01 µM [rising, full curve, poor fit].

On to `O=C(Nc1ccc(N2CCCCCC2)cc1)c1ccccc1Cl`, for which the AC50 under setting [2] is 4.47 µM [rising, partial curve, poor fit].

In the case of `Cc1cc(=O)c2ccccc2n1CC(=O)NCc1ccccc1`, the AC50 reads like this: under setting [1], 15.8 µM [rising, partial curve, poor fit]; under setting [2], 22.4 µM [rising, partial curve].

Regarding `COc1ccc(Nc2oc(-c3ccc(COc4ccc(OC)cc4)o3)nc2C#N)cc1`, the concentration at half-maximal activity (AC50) runs as follows: under setting [1], 0.355 µM [falling, full curve, poor fit]; under setting [2], 0.00562 µM [falling, full curve, poor fit].

With `c1ccc(Nc2cc(-c3ccoc3)ncn2)cc1`, the half-maximal activity concentration (AC50) under setting [1] is 12.6 µM [falling, partial curve].

For `O=C(CSc1nc2ccccc2c(=O)n1Cc1ccco1)N1CCCCCC1`, the AC50 by setting is: under setting [1], 31.6 µM [rising, single point]; under setting [2], 20 µM [rising, single point].

With `COc1ccc(N2CCN(C(c3cccs3)C(C)NC(=O)c3ccco3)CC2)cc1` (stereo unspecified), under setting [2], the AC50 is 17.8 µM [rising, partial curve, poor fit].

Take `Cc1cccc(C)c1OCC(=O)N/N=C/C=C/c1ccco1`: the half-maximal activity concentration (AC50) under setting [2] is 35.5 µM [falling, single point].

On to `Cc1cc(SCC(=O)c2cccs2)n2nc(C)c(-c3ccccc3)c2n1`, for which the AC50 under setting [2] was 35.5 µM [rising, single point].

`Cc1ccc(S(=O)(=O)N2CC=C(c3ccc(F)cc3)CC2)cc1`: the AC50 under setting [2] was 35.5 µM [rising, single point].

Turning to `CC(C[N+](C)(C)C)OC(N)=O` (stereo unspecified), the concentration at half-maximal activity (AC50) under setting [2] is 5.62 µM [rising, single point].

As for `CNc1nc2c(c(=O)n(C)c(=O)n2C)n1Cc1ccccc1`, under setting [2], the AC50 was 8.91 µM [rising, partial curve].

With `Cc1cccc2c1CC(C)(C)N/C2=C\C(N)=O`, the concentration at half-maximal activity (AC50) is 6.31 µM [rising, full curve, poor fit] under setting [1] and 6.31 µM [rising, full curve, poor fit] under setting [2].

In the case of `CCc1cccc2c(C(=O)COC(=O)c3ccc(O)cc3)c[nH]c12`, under setting [2], the AC50 was 35.5 µM [rising, single point].

Regarding `Cc1ccc(-n2c(C)cc(C(=O)COc3cccnc3[N+](=O)[O-])c2C)cc1`, the AC50 reads like this: under setting [1], 10 µM [rising, partial curve, poor fit]; under setting [2], 11.2 µM [rising, partial curve].

Turning to `C=C[C@](C)(O)CCC1C(=C)CC(OC(C)=O)C2C(C)(C)CCCC12C` (stereo partly specified), the AC50 is 22.4 µM [falling, partial curve, poor fit] under setting [1] and 35.5 µM [falling, single point] under setting [2].

The values are drawn from PubChem BioAssay AID1487 (National Center for Advancing Translational Sciences (NCATS), 2009).
